Experimental data: patent US20020068744A1, “Substituted-triazolopyrimidines as anticancer agents” (American Home Products Corporation, priority 2000, published 2002)

Tests used:
Type in all cases: cell-based
[1] = test system: H157 human non-small cell lung carcinoma; test: MTS cytotoxicity with H157 cells; details: NCI-H157
Procedure: (§1) For the test procedure, COLO 205 cells were harvested by trypsinization, washed, counted and distributed to wells of 96-well flat-bottom microtiter plates at 1000 cells per well in 100 μl of medium. In addition, one row of wells on an additional plate received cells as above (“time 0” plate). All plates were incubated at 37° in humidified 5% CO2 in air for about 24 hr.
(§2) Compounds were dissolved in DMSO at 10 mg/ml. For each compound, six serial 3-fold dilutions were prepared in medium. The highest drug concentration with cells was 5 μg/ml and the highest DMSO concentration was 0.05%. Drugs were added in duplicate to wells in 100 μl volume. […] The plates were returned to the incubator for three days.
(§3) At the time of drug addition to the experimental plates, the MTS assay was run on the “time 0” plate. This produced the “time 0 MTS value” which was related to the number of viable cells per well at the time of drug addition.
(§4) After three days of culture with test compounds (day 5 overall), the MTS assay was done on all wells of the experimental plates. The results for each plate were calculated separately, using its own controls. The absorbance values of the duplicate sample wells were averaged and divided by the average of the “time 0” values. […]

U87MG human glioblastoma = test: MTS cytotoxicity with U87MG cells; details: U-87 MG
Procedure: as §1, §2, §3, §4

[2] = test system: DLD1 human colon adenocarcinoma; test: MTS cytotoxicity with DLD1 cells; details: DLD-1
Procedure: as §1, §2, §3, §4

[3] = test system: KB human epidermoid carcinoma cell line; test: MTS cytotoxicity with KB cells
Procedure: (§5) For the test procedure, COLO 205 cells were harvested by trypsinization, washed, counted and distributed to wells of 96-well flat-bottom microtiter plates at 1000 cells per well in 100 μl of medium. In addition, one row of wells on an additional plate received cells as above (“time 0” plate). […] Compounds were dissolved in DMSO at 10 mg/ml. For each compound, six serial 3-fold dilutions were prepared in medium. The highest drug concentration with cells was 5 μg/ml and the highest DMSO concentration was 0.05%. Drugs were added in duplicate to wells in 100 μl volume. […] The plates were returned to the incubator for three days. At the time of drug addition to the experimental plates, the MTS assay was run on the “time 0” plate. This produced the “time 0 MTS value” which was related to the number of viable cells per well at the time of drug addition. […] After three days of culture with test compounds (day 5 overall), the MTS assay was done on all wells of the experimental plates. […] The absorbance values of the duplicate sample wells were averaged and divided by the average of the “time 0” values. […] The cytotoxicity standard pharmacological test procedure with MTS detection was applied to representative compounds of the invention with the KB human epidermoid carcinoma cell line and two multidrug resistant lines derived from it. […]

[4] = test system: colchicine-resistant KB 8.5; test: MTS cytotoxicity with KB 8.5 cells (moderate P-glycoprotein); details: Homo sapiens
Procedure: as §5

[5] = test system: mitoxantrone-resistant S1-M1; test: MTS cytotoxicity with S1-M1 cells (MXR transporter); details: Homo sapiens
Procedure: as §1, §2, §3
After three days of culture with test compounds (day 5 overall), the MTS assay was done on all wells of the experimental plates. […] The absorbance values of the duplicate sample wells were averaged and divided by the average of the “time 0” values. […] The six values for each compound were plotted against concentration, and the concentration that produced a relative color yield half way between the maximum and minimum was taken as the IC50 value. […]

## COc1cc2c(c(OC)c1OC)-c1ccc(OC)c(=O)cc1[C@@H](NC(C)=O)CC2 [Colchicine, reference compound]
[1]
  IC50: 0.013 µM
U87MG human glioblastoma
  IC50: 0.0065 µM
[2]
  IC50: 0.025 µM
[3]
  IC50: 0.0072 µM
[4]
  IC50: 0.051 µM
[5]
  IC50: 0.047 µM
